From patent US20160201132A1, “GENE EXPRESSION BIOMARKERS OF LAQUINIMOD RESPONSIVENESS” (Teva Pharmaceutical Industries Ltd., priority 2013, published 2016)
Further values from the same series stand in other lists.

Test system: PBMC of RRMS patients
Assay: Gene expression microarray analysis (HG-U133A-2) of PBMC from RRMS patients treated with LAQ, ancillary study to ALLEGRO
Assay type: in vivo, human
Source text: The goal of this ancillary study was to characterize gene expression changes and corresponding biological mechanisms induced in PBMC of RRMS patients by LAQ treatment. According to ALLEGRO clinical trial inclusion criteria, 25 patients were randomly assigned to receive LAQ (n=13, age 38.8±2.3 years, female/male ratio: 8/5) or placebo (n=12, age 37.2±3.4 years, female/male ratio: 8/4).
Peripheral blood samples were obtained from RRMS patients at baseline before start of LAQ treatment or placebo, after 0, 1, 6 and 24 month of treatment (visit 0, 1, 6 and 7 according to ALLEGRO clinical trial protocol correspondently) for gene microarray analysis.
Briefly, 1) Peripheral blood mononuclear cells (PBMC) were obtained from RRMS patients that participated in ALLEGRO and were treated daily with 0.6 mg LAQ or placebo. PBMC were subjected for gene expression analysis (HU-133A-2-Affymatrix arrays) at baseline and at 1 and 6 months of LAQ treatment; 2) Data was analyzed by Partek Genomics Solution software. Most informative genes (MIGs) were defined as those that differentiated between groups with p<0.01. Gene functional annotation, enrichment and pathway analysis were performed by Ingenuity software. For each time point, genes that changed in placebo group were excluded from further analysis; and 3) Verification of LAQ related mechanism was performed by Western blot.
PBMC were extracted from 15 ml peripheral blood, separated by Ficoll-Hypaque gradient. Total RNA was extracted using both Trizol (Invitrogen, USA) and Phase-Lock-Gel columns (Eppendorf, Germany) including a DNase digestion step. RNA integrity was assessed by RNA Experion automated electrophoresis system (Bio-Rad Laboratories, Hercules, Calif.).
Probe synthesis using 3 μg total RNA, hybridization, detection, and scanning was performed according to the standard Affymetrix, Inc. USA protocols; cDNA was synthesized using the Two-Cycle cDNA Synthesis Kit (Affymetrix, Inc., USA), and in-vitro transcription performed with the GeneChip IVT Labeling Kit (Affymetrix, Inc., USA). The biotin-labeled IVT-RNA was hybridized to HG-U133A-2 arrays containing 18,400 gene transcripts, each corresponding to 14,500 well-annotated human genes, washed in a GeneChip Fluidics Station 450 (Hewlett Packard, USA, GeneArray-™ scanner G2500A) and scanned according to the manufacturer's protocol (Affymetrix, Inc., USA).
Data analysis was performed on Partek Genomics Solution software (www.partek.com; Partek Incorporated, St. Louis, Mo.). Expression values were computed from raw CEL files by applying the Robust Multi-Chip Average (RMA) background correction algorithm. RMA correction included: 1) values background correction; 2) quintile normalization; 3) log 2 transformation; and 4) median polish summarization. The ANOVA, Repeated Measures and correlation analysis implicated in Partek software ware applied to evaluate LAQ effects. Most informative genes MIGs were defined as those that differentiated between experimental groups with p<0.01. All p-values were calculated for False Discovery Rate (FDR) multiple test correction at p=0.05.
Additionally, significance of individual genes was tested by parametric T-test and non parametric Mann-Whitney test using Bootstrapping approach based on repeated permutations of the data with 5% FDR for multiple testing.
Gene functional annotation, enrichment, and pathway analyses to identify the leading biological pathways that operated under LAQ treatment were performed by Ingenuity Pathways Analysis software (www.ingenuity.com).
ANOVA analysis was used to compare PBMC gene expression after 1, 6 or 24 month of LAQ treatment with baseline gene expression.
For each time point inventors performed analysis source of variation in dataset. (FIG. 1). Age, gender and batch effects were considered as confounders regarding LAQ or Placebo related changes. For each time point genes associated with Placebo effect were evaluated and excluded from further analysis. […]

SMILES: CCN(C(=O)c1c(O)c2c(Cl)cccc2n(C)c1=O)c1ccccc1 [LAQ, 5-chloro-N-ethyl-4-hydroxy-1-methyl-2-oxo-N-phenyl-1,2-dihydroquinoline-3-carboxamide]
- Fold-Change (4.0 vs. 0.0) (gene CTSL2, after six months of LAQ): −1.2276
- Fold-Change (4.0 vs. 0.0) (gene CYLC2, after six months of LAQ): −1.138
- Fold-Change (4.0 vs. 0.0) (gene CYP2A13, after six months of LAQ): −1.227
- Fold-Change (4.0 vs. 0.0) (gene CYP2E1, after six months of LAQ): −1.354
- Fold-Change (4.0 vs. 0.0) (gene CYP2W1, after six months of LAQ): −1.25
- Fold-Change (4.0 vs. 0.0) (gene CYP3A4, six months of treatment): −1.152
- Fold-Change (4.0 vs. 0.0) (gene CYP3A7, after six months of LAQ): −1.1409
- Fold-Change (4.0 vs. 0.0) (gene CYP3A43): −1.194
- Fold-Change (4.0 vs. 0.0) (gene CYP3A43, after six months of LAQ): −1.14
- Fold-Change (4.0 vs. 0.0) (gene CYP4A11, after six months of LAQ): −1.273
- Fold-Change (4.0 vs. 0.0) (gene CYP4A22, after six months of LAQ): −1.127
- Fold-Change (4.0 vs. 0.0) (gene CYP4F11, six months of treatment): −1.145
- Fold-Change (4.0 vs. 0.0) (gene CYP19A1): −1.1916
- Fold-Change (4.0 vs. 0.0) (gene DACH1, after six months of LAQ): −1.261
- Fold-Change (4.0 vs. 0.0) (gene DAZ1 /// DAZ2 /// DAZ3 /// DAZ4, six months of treatment): −1.157
- Fold-Change (4.0 vs. 0.0) (gene DBC1, after six months of LAQ): −1.234
- Fold-Change (4.0 vs. 0.0) (gene DCBLD2, PBMC, six months of LAQ treatment): −1.083
- Fold-Change (4.0 vs. 0.0) (gene DCHS2, after six months of LAQ): −1.141
- Fold-Change (4.0 vs. 0.0) (gene DDR1): −1.185
- Fold-Change (4.0 vs. 0.0) (gene DENND2A, after six months of LAQ): −1.143
- Fold-Change (4.0 vs. 0.0) (gene DENND2A, six months of treatment): −1.159
- Fold-Change (4.0 vs. 0.0) (gene DGKB, after six months of LAQ): −1.135
- Fold-Change (4.0 vs. 0.0) (gene DICER1, six months of treatment): −1.145
- Fold-Change (4.0 vs. 0.0) (gene DIO2): −1.184
- Fold-Change (4.0 vs. 0.0) (gene DIRAS3, six months of treatment): −1.147
- Fold-Change (4.0 vs. 0.0) (gene DKFZP434B2016 /// LOC643313, after six months of LAQ): −1.126
- Fold-Change (4.0 vs. 0.0) (gene DKX4, PBMC, six months of LAQ treatment): −1.1214
- Fold-Change (4.0 vs. 0.0) (gene DLEU2 /// DLEU2L, after six months of LAQ): −1.326
- Fold-Change (4.0 vs. 0.0) (gene DLGAP1, six months of treatment): −1.145
- Fold-Change (4.0 vs. 0.0) (gene DLGAP4): −1.193
- Fold-Change (4.0 vs. 0.0) (gene DNAH9, six months of treatment): −1.16
- Fold-Change (4.0 vs. 0.0) (gene DNAJC6, PBMC, six months of LAQ treatment): −1.107
- Fold-Change (4.0 vs. 0.0) (gene DNAJC8, after six months of LAQ): −1.129
- Fold-Change (4.0 vs. 0.0) (gene DNAJC22, six months of treatment): −1.145
- Fold-Change (4.0 vs. 0.0) (gene DOCK5, six months of treatment): −1.1585
- Fold-Change (4.0 vs. 0.0) (gene DOCK6, PBMC, six months of LAQ treatment): −1.107
- Fold-Change (4.0 vs. 0.0) (gene DOCK6, six months of treatment): −1.159
- Fold-Change (4.0 vs. 0.0) (gene DRD2, PBMC, six months of LAQ treatment): −1.121
- Fold-Change (4.0 vs. 0.0) (gene DRD5, after six months of LAQ): −1.136
- Fold-Change (4.0 vs. 0.0) (gene DSG2): −1.188
- Fold-Change (4.0 vs. 0.0) (gene DUX3 /// DUX4 /// FRG2C /// HPX-2 /// LOC100134409 /// LOC652119 /// LOC653543 /// LOC653544 /// LOC653545 /// LOC728410, after six months of LAQ): −1.237
- Fold-Change (4.0 vs. 0.0) (gene DYNC1I1, after six months of LAQ): −1.229
- Fold-Change (4.0 vs. 0.0) (gene DZIP1, after six months of LAQ): −1.125
- Fold-Change (4.0 vs. 0.0) (gene E2F5, after six months of LAQ): −1.13
- Fold-Change (4.0 vs. 0.0) (gene EDA2R, after six months of LAQ): −1.2385
- Fold-Change (4.0 vs. 0.0) (gene EDNRA, PBMC, six months of LAQ treatment): −1.11
- Fold-Change (4.0 vs. 0.0) (gene EDNRA, six months of treatment): −1.154
- Fold-Change (4.0 vs. 0.0) (gene EFCAB6, after six months of LAQ): −1.231
- Fold-Change (4.0 vs. 0.0) (gene EFNB1, after six months of LAQ): −1.279
- Fold-Change (4.0 vs. 0.0) (gene EFNB3): −1.188
- Fold-Change (4.0 vs. 0.0) (gene EFS): −1.191
- Fold-Change (4.0 vs. 0.0) (gene EFS, after six months of LAQ): −1.247
- Fold-Change (4.0 vs. 0.0) (gene EGFL6, after six months of LAQ): −1.235
- Fold-Change (4.0 vs. 0.0) (gene EGFR, six months of treatment): −1.154
- Fold-Change (4.0 vs. 0.0) (gene ELAVL2, after six months of LAQ): −1.135
- Fold-Change (4.0 vs. 0.0) (gene ELAVL4, after six months of LAQ): −1.248
- Fold-Change (4.0 vs. 0.0) (gene ELF5, after six months of LAQ): −1.142
- Fold-Change (4.0 vs. 0.0) (gene ELL2, after six months of LAQ): −1.292
- Fold-Change (4.0 vs. 0.0) (gene EMX1, after six months of LAQ): −1.134
- Fold-Change (4.0 vs. 0.0) (gene ENTPD7, after six months of LAQ): −1.259
- Fold-Change (4.0 vs. 0.0) (gene EPAS1, six months of treatment): −1.146
- Fold-Change (4.0 vs. 0.0) (gene EPB41, after six months of LAQ): −1.138
- Fold-Change (4.0 vs. 0.0) (gene EPB41L1): −1.192
- Fold-Change (4.0 vs. 0.0) (gene EPB41L4B, after six months of LAQ): −1.142
- Fold-Change (4.0 vs. 0.0) (gene EPHB3, after six months of LAQ): −1.129
- Fold-Change (4.0 vs. 0.0) (gene ERC1, six months of treatment): −1.145
- Fold-Change (4.0 vs. 0.0) (gene ERG, six months of treatment): −1.144
- Fold-Change (4.0 vs. 0.0) (gene ERN1, after six months of LAQ): −1.277
- Fold-Change (4.0 vs. 0.0) (gene ESR2, after six months of LAQ): −1.248
- Fold-Change (4.0 vs. 0.0) (gene ETV1, after six months of LAQ): −1.14
- Fold-Change (4.0 vs. 0.0) (gene ETV5): −1.19
- Fold-Change (4.0 vs. 0.0) (gene EXOSC6, after six months of LAQ): −1.266
- Fold-Change (4.0 vs. 0.0) (gene F11): −1.187
- Fold-Change (4.0 vs. 0.0) (gene FABP3): −1.191
- Fold-Change (4.0 vs. 0.0) (gene FAM12A, after six months of LAQ): −1.14
- Fold-Change (4.0 vs. 0.0) (gene FAM13C, after six months of LAQ): −1.134
- Fold-Change (4.0 vs. 0.0) (gene FAM66D, PBMC, six months of LAQ treatment): −1.116
- Fold-Change (4.0 vs. 0.0) (gene FAM107A, six months of treatment): −1.152
- Fold-Change (4.0 vs. 0.0) (gene FAM155A, after six months of LAQ): −1.129
- Fold-Change (4.0 vs. 0.0) (gene FAM174B, after six months of LAQ): −1.138
- Fold-Change (4.0 vs. 0.0) (gene FAM182B, PBMC, six months of LAQ treatment): −1.118
- Fold-Change (4.0 vs. 0.0) (gene FAM186A, after six months of LAQ): −1.1268
